Library compounds against nucleic acid targets

Source: the ROBIN nucleic acid binder screens (doi:10.1002/anie.202211358).

Targets (5′ to 3′):
T1: SAM-II riboswitch RNA pseudoknot, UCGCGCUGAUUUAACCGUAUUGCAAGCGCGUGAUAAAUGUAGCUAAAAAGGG. About 200 hits among about 21,000 compounds.
T2: PreQ1 riboswitch RNA pseudoknot, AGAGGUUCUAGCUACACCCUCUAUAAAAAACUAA. From B. subtilis. About 170 hits among about 24,000 compounds.
T3: TPP riboswitch RNA three-way junction, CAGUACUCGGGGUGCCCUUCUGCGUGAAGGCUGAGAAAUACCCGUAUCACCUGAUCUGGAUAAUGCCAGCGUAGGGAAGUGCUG. About 160 hits among about 24,000 compounds.

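Each compound is printed as two spots on a slide made to bind it covalently, so it has no test concentration; the read-out is fluorescence of the bound, labelled oligonucleotide. The data file lists only calls. An earlier report of the laboratory on the PreQ1, TPP and SAM-II riboswitches (doi:10.1038/s41467-019-09493-3) used 1 µM RNA for 2 h and required a mean Z-score above 3 (spot signal-to-noise against the whole library), a score well above that on a control array, and duplicate spots agreeing (coefficient of variation under 100); it then also set aside compounds that hit other targets, which this list keeps. The cut-offs behind this list may differ. These are primary screening calls, not affinities; a compound without a hit may have attached poorly or may still bind in solution.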 “1” means called a hit, “0” means screened and not called a hit. This is an unselected part of the compounds tested. A dash means that no call is listed here.

structure	T1	T2	T3
O[C@H]1Cc2ccccc2[C@H]1Nc1nc(-c2ccccn2)nc2c1CCNC2	0	0	0
O=c1c(NCc2ccc(F)cc2)c(-c2ccccc2)c1=O	-	0	0
CCCc1cncnc1N1CCC(NCc2nnc(-c3ccccc3)o2)CC1	0	0	0
O=C(NCCSc1ccccn1)c1cccc(C2CCCNC2)c1 (stereo unspecified)	0	0	0
CC(C)(O)CCc1cccc(C(=O)NCC(O)c2ccncc2)c1 (stereo unspecified)	0	0	0
Cc1cc(C)c2c(N)c(S(=O)(=O)Cc3ccc(Cl)cc3)sc2n1	0	0	0
Nc1nnnn1CC(=O)N(c1cccc(Cl)c1)C1(C(=O)Nc2ccccc2)CCCCC1	0	0	0
COc1ccc2c(C)c(CCC(=O)NC3CC(C)(C)NC(C)(C)C3)c(=O)oc2c1	0	0	0
CC(C)(C)c1ccc(CNC2(c3ccccc3)C(=O)c3ccccc3C2=O)cc1	0	0	0
c1ccc(CCCN2CCCC3(CCNC3)C2)cc1 (stereo unspecified)	0	0	0
Fc1ccc(Nc2ncnc3c2nc2n3CCCCC2)cc1Cl	-	0	0
CCCCn1c(=O)n(Cc2ccccc2F)c(=O)c2[nH]c(Cc3ccc(NC(C)=O)cc3)nc21	0	0	0
Cc1ccc(CCNCc2c(C(=O)O)[nH]c3ccccc23)cc1	-	0	0
c1ccc2c(CN3CCNCC3)cccc2c1	0	0	0
COc1ccc(-c2[nH]c3c(C#N)cnn3c2NC2CCCCCCC2)cc1	-	0	0
Fc1ccc(Nc2c(-c3ccco3)nc3ccc(Br)cn23)cc1	0	0	0
CN1CCC(N(CCc2ccccc2)C(=O)CN2CCCC(O)C2)CC1 (stereo unspecified)	0	0	0
Cc1ccc(C(=O)c2sc3nc(C)cc(C(F)(F)F)c3c2N)cc1	0	0	0
CC(O)CCC(=O)NCCc1nc2ccccc2n1Cc1ccccc1 (stereo unspecified)	-	0	0
Cn1c(=O)n(C)c2cc(C(O)COc3ccc(CNCCc4ccc(F)cc4)cc3)ccc21 (stereo unspecified)	-	0	0
CN(C)c1ccc(C2CC(=O)c3cnc(NC4CC4)nc3C2)cc1 (stereo unspecified)	0	0	0
O=C(c1cccc(CO)n1)N1CCCCC1CCc1ccccc1 (stereo unspecified)	0	0	0
CCOC(=O)Nc1ccc(C(=O)/C=C/c2ccccc2)cc1	0	0	0
CCc1cnc(N)nc1NCc1ccc(OCCOC)cc1	0	0	0
Cc1nc(C2CCCNC2)cc(N2CCC3(CC2)Nc2ccccc2NC3=O)n1 (stereo unspecified)	0	0	0
COC(=O)c1ccc(-c2nc3cnccn3c2Nc2cccc(C(=O)OC)c2)cc1	-	0	0
O=C(c1ccc(CNc2c(N3CCCC3)c(=O)c2=O)cc1)N1CCc2ccccc2C1	-	0	0
CC1CCN(C(=O)c2sc3nc(N4CCCC4)c4c(c3c2N)CCCC4)CC1	-	0	0
C#CCNc1ccc(C(=O)OCC)cc1	0	0	0
O=C(CC1Nc2ccccc2NC1=O)Nc1ccc2c(c1)OCO2 (stereo unspecified)	0	0	0
O=C(NCCO)c1cc2ccccc2c(=O)s1	0	0	0
COc1ccc(-c2nn3c(NC(C)C)cc(C)nc3c2C)cc1	-	0	0
Nc1ccc(C(=O)N2CCc3c(nc(-c4ccccn4)[nH]c3=O)C2)cn1	0	0	0
Cc1cc(Nc2ccc(C(=O)N(C)C3CCCCC3)cc2)n2nc(-c3cccnc3)nc2n1	-	0	0
CCNc1oc(-c2ccccc2)nc1S(=O)(=O)c1ccccc1	-	0	0
CN(C)[C@H]1CCN(Cc2ccc(-c3ccc(Cl)cc3)cc2)C[C@H]1CCCO	0	0	0
CC(C)CCNc1cc(=O)n(C)c(=O)n1C	0	0	0
CC(C)n1cnc2cc(NCc3ccccc3Cl)ccc21	0	0	0
O=C(c1cccc(-n2cccn2)c1)N1CCC(C(O)c2cccs2)CC1 (stereo unspecified)	0	0	0
CC(C)c1ccc(S(=O)(=O)c2nnn3c2nc(N)c2ccccc23)cc1	0	0	0
CCCc1[nH]nc2c1C(c1ccc(Cl)cc1)C(C#N)=C(N)O2 (stereo unspecified)	0	0	0
Nc1n[nH]c(SCC(=O)N2C[C@H]3CC[C@@H]2CN(c2cnccn2)C3)n1	0	0	0
Cc1ccccc1OCCCn1c(C(C)O)nc2ccccc21 (stereo unspecified)	0	0	0
CCN1CC(=Cc2cccs2)C2=C(C1)C(c1cccs1)C(C#N)=C(N)O2 (stereo unspecified)	0	0	0
Cn1c(=O)c2c(nc(NCC(O)c3ccccc3)n2C)n(C)c1=O (stereo unspecified)	0	0	0
Cc1nn(C)c(C)c1CCC(=O)N1C[C@@H](CN2CCOCC2)[C@@H](CO)C1	0	0	0
CCOC(=O)C1=C(N)OC2=C(C(=O)CCC2)C12C(=O)Nc1ccccc12 (stereo unspecified)	0	0	0
C=CCN(CC=C)C(=O)Nc1cc(OC)ccc1OC	0	0	0
Cc1c(-c2ccccc2)[nH]c2c(CNc3nccc(N)n3)cc(Cl)cc12	0	0	0
O=C(CCCc1cccs1)N1[C@H]2CCNC[C@@H]1CC2	0	0	0

For reference, 3 entries once more:

| structure | T1 | T2 | T3 |
|---|---|---|---|
| `COc1ccc(-c2nn3c(NC(C)C)cc(C)nc3c2C)cc1` | - | 0 | 0 |
| `CC(C)c1ccc(S(=O)(=O)c2nnn3c2nc(N)c2ccccc23)cc1` | 0 | 0 | 0 |
| `Cn1c(=O)n(C)c2cc(C(O)COc3ccc(CNCCc4ccc(F)cc4)cc3)ccc21` (stereo unspecified) | - | 0 | 0 |